Laboratory results published in PubChem BioAssay AID493014 (National Center for Advancing Translational Sciences (NCATS), 2011).
The other results are listed elsewhere or left out. Further columns of the screen follow, without active or inactive calls. Compounds called inactive in the main read-out are mostly missing here. Potencies come from curve fits of mixed quality, noted in brackets.

Assay: qHTS Assay to Find Inhibitors of Chronic Active B-Cell Receptor Signaling
Settings: ABC-DLBCL IkBa-CBG/CBR reporter, luminescence ratio (green luciferase fused to IkBa over red control in TMD8 lymphoma cells), 4 h
Outline: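 TMD8 human ABC-DLBCL cells with doxycycline-inducible IκBα–green luciferase fusion and unfused red luciferase, in 0.5% FBS medium; compounds up to 46 uM, 4 h at 37C. Green/red luminescence ratio, filter-overlap corrected, fitted to concentration-response curves.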

[1] = measured here: CBR red luminescence, cell number
[2] = measured here: IkBa-CBG green luminescence

| SMILES | AC50 [1] | AC50 [2] |
| --- | --- | --- |
| O=C1OCCC1Sc1nnnn1-c1ccc(Cl)cc1 (centres undefined) | 7.08 µM [falling, partial curve] |  |
| COc1cc(/C=N/Nc2ccc(Cl)c(C(=O)O)c2)ccc1OC(=O)c1ccco1 | 11.2 µM [falling, partial curve] |  |
| N#C/C(=C\c1ccc(OCc2cccc(C(=O)O)c2)cc1)C(=O)NCc1ccco1 | 8.91 µM [falling, partial curve] |  |
| CN(C)CCCNC(=O)C[C@H]1C[C@H](C(=O)N2CCOCC2)[C@@]2(C)c3[nH]c4cc(-c5ccco5)ccc4c3CCN2C1=O | 29.1 µM [rising, single point] |  |
| Cc1ccc(S(=O)(=O)CCC(=O)Nc2nc(-c3ccncc3)cs2)cc1 | 12.6 µM [falling, single point] |  |
| Cc1sc2nc(CN3CCOCC3)nc(NS(=O)(=O)c3cc(Cl)ccc3Cl)c2c1C | 25.9 µM [rising, single point] |  |
| CNc1cc(N2CCCCCC2)ccc1[N+](=O)[O-] | 22.4 µM [rising, partial curve, poor fit] |  |
| Cc1ccc(CN2CCN(/N=C/c3ccc(Cl)c([N+](=O)[O-])c3)CC2)cc1 | 20 µM [rising, partial curve, poor fit] |  |
| COc1ccc(NC(=O)C(Cc2ccccc2)n2cccc2)cc1 (centres undefined) | 3.55 µM [rising, single point] |  |
| O=C(O)CCc1n[nH]c(=S)[nH]c1=O | 0.0164 µM [rising, full curve, poor fit] |  |
| Cc1cc(SCC(=O)N/N=C/c2ccc(O)c(O)c2)nc2ccccc12 | 17.8 µM [falling, single point] |  |
| Cc1nn(-c2ccccc2)c(Cl)c1C(=O)NCCCCNC(=O)c1c(C)nn(-c2ccccc2)c1Cl | 29.1 µM [falling, single point] |  |
| CC(C)NC(=O)[C@]1(C)CCC[C@@]2(C)C3CC[C@@]4(C)C[C@]3(CCC21)CC4=O (some centres undefined) | 25.9 µM [falling, single point] |  |
| CC(C)NC(=O)/C(C#N)=C/c1ccc2c(c1)OCCO2 | 29.1 µM [falling, single point] |  |
| COc1ccc(OCC(=O)N2CCN(C(=O)c3cccc4ccccc34)CC2)cc1 | 16.4 µM [rising, partial curve, poor fit] |  |
| COc1ccc(/C=N/NC(=O)c2[nH]c3ccc(Cl)cc3c2-c2ccccc2)c(C(=O)O)c1OC | 3.98 µM [rising, full curve] | 3.55 µM [falling, full curve] |
| O=C(Nc1ccccn1)C1CCN(S(=O)(=O)c2ccc3ccccc3c2)CC1 | 32.6 µM [falling, partial curve, poor fit] |  |
| COc1ccc(OC)c(NC(=O)CSc2nnc(-c3ccco3)n2-c2ccc(C(=O)O)cc2)c1 | 35.5 µM [falling, single point] |  |
| CCC(c1ccccc1)c1nc(-c2cccnc2)no1 (centres undefined) | 4.61 µM [rising, full curve, poor fit] |  |
| COc1cccc(CC(=O)OCC(=O)NCC(=O)Nc2cccc(C)c2C)c1 | 1.46 µM [falling, full curve] |  |
| CC(C)(C)C(=O)[C@@H]1[C@@H]2C(=O)N(C3CCCCC3)C(=O)[C@@H]2[C@H]2c3ccccc3C=CN12 | 8.2 µM [falling, partial curve, poor fit] |  |

| SMILES | AC50 [1] | AC50 [2] |
| --- | --- | --- |
| Cc1sc2nc(SCC(=O)NCc3ccco3)n(-c3ccccc3)c(=O)c2c1C | 3.98 µM [rising, full curve, poor fit] |  |
| CC(C)[C@H](NC(=O)NC1CCN(Cc2ccccc2)CC1)C(=O)O | 35.5 µM [rising, single point] |  |
| C=CCNC(=S)NNC(=O)c1cc(-c2cccnc2)nc2ccccc12 | 15.8 µM [falling, partial curve, poor fit] |  |
| COc1ccc(NC(=S)Nc2cc(-c3ccccc3)[nH]n2)cc1Cl | 29.1 µM [falling, single point] |  |
| Cc1ccc(NC(=O)Nc2cc(C)on2)cc1 | 2.51 µM [rising, partial curve] |  |
| COc1ccc(C(C(=O)NC2CCCC2)N(Cc2ccccc2)C(=O)CNC(=O)c2ccco2)cc1 (centres undefined) | 4.11 µM [rising, partial curve] |  |
| CCOC(=O)/C=C/C(=O)Nc1cccc([N+](=O)[O-])c1 | 8.2 µM [falling, partial curve] |  |
| Cc1ccc(/C=C2\SC(=S)N(CCC(=O)NNS(=O)(=O)c3ccc(C)cc3)C2=O)cc1 | 0.731 µM [falling, full curve] |  |
| COc1ccc(OC)c(C2CC(=O)N3CN(c4cccc(Cl)c4C)CSC3=C2C#N)c1 (centres undefined) | 32.6 µM [falling, single point] |  |
| COc1cc(C2C(C#N)=C(N)Oc3cc(C)n(CCN4CCOCC4)c(=O)c32)cc(OC)c1OC (centres undefined) | 35.5 µM [rising, single point] |  |
| N#C/C(=C\c1cccc([N+](=O)[O-])c1)c1ccccn1 | 25.1 µM [falling, single point] |  |
| O=C(c1cc(Br)ccc1O)N1CCN(S(=O)(=O)Cc2ccccc2)CC1 | 1.46 µM [rising, single point] |  |
| O=C(N/N=C/c1ccc(O)c(O)c1O)/C(=C/c1ccc([N+](=O)[O-])cc1)NC(=O)c1ccccc1 | 0.00461 µM [falling, full curve, poor fit] |  |
| CCc1ccccc1NC(=O)c1cc(S(=O)(=O)N2CCc3ccccc32)ccc1F | 15.8 µM [falling, single point] |  |
| Cc1ccc(Cl)cc1NC(=O)C1COc2ccccc2O1 (centres undefined) | 3.98 µM [rising, full curve, poor fit] |  |
| Cc1cc(SCC(=O)NCC(c2cccs2)N2CCOCC2)c(C)cc1Br (centres undefined) | 25.9 µM [falling, partial curve] |  |
| Cn1c(=O)c2c(nc(CN3CCN(C(=O)c4ccco4)CC3)n2CC(=O)C(C)(C)C)n(C)c1=O | 15.8 µM [rising, single point] |  |
| Cc1cccc(N2CCN(C(=O)c3cccs3)CC2)c1C | 35.5 µM [falling, single point] |  |
| CCc1ccc(C(=O)NC2CCCCC2)s1 | 8.91 µM [falling, partial curve, poor fit] |  |
| CC(=O)c1sc(NC(=O)CS(=O)(=O)c2ccc(F)cc2)nc1C | 29.1 µM [falling, single point] |  |
| Cc1cc(Cl)ccc1NC(=S)NCC(C)C | 20.6 µM [rising, single point] |  |

Taken from the entries so far for reference:

| SMILES | AC50 [1] | AC50 [2] |
| --- | --- | --- |
| Cn1c(=O)c2c(nc(CN3CCN(C(=O)c4ccco4)CC3)n2CC(=O)C(C)(C)C)n(C)c1=O | 15.8 µM [rising, single point] |  |
| Cc1cccc(N2CCN(C(=O)c3cccs3)CC2)c1C | 35.5 µM [falling, single point] |  |
| CCc1ccc(C(=O)NC2CCCCC2)s1 | 8.91 µM [falling, partial curve, poor fit] |  |
| CC(=O)c1sc(NC(=O)CS(=O)(=O)c2ccc(F)cc2)nc1C | 29.1 µM [falling, single point] |  |

(list continues)

| SMILES | AC50 [1] | AC50 [2] |
| --- | --- | --- |
| COCCNC(=O)C(OC(=O)C1=Cc2ccccc2OC1)C(C)C (centres undefined) | 3.55 µM [rising, partial curve, poor fit] |  |
| CCOC(=O)c1sc(NC(=O)Cc2ccccc2OC)nc1C | 8.91 µM [falling, partial curve] |  |
| O=C(N/N=C/c1ccc(N2CCOCC2)cc1)c1ccccc1NS(=O)(=O)c1cccs1 | 10 µM [falling, partial curve, poor fit] |  |
| Cn1nc(-c2ccccn2)nc2c(=O)n(C)c(=O)nc1-2 | 6.31 µM [falling, full curve, poor fit] |  |
| COC(=O)CSc1nc(SCc2ccccc2Cl)nc2c1CCCC2 | 4.11 µM [falling, full curve] |  |
| CNC(=O)c1cc(S(=O)(=O)Nc2ccc(C)cc2C)ccc1C | 15.8 µM [rising, single point] |  |
| Cc1ccc(NC(=O)C2(NC(=O)c3cccc(N4C(=O)CSC4c4ccccc4)c3)CCCCC2)cc1 (centres undefined) | 11.2 µM [falling, partial curve, poor fit] |  |
| COC(=O)C1=C(C(=O)OC)[C@@H]2N(Cc3ccccc3)c3ccccc3[C@@]23C[C@@H](C(=O)OC)N(C(=O)c2cccs2)C3=N1 | 35.5 µM [falling, single point] |  |
| C=CCOc1ccc(-c2n[nH]c(=S)o2)cc1 | 3.16 µM [rising, single point] |  |
| Cc1ccc(NC(=O)C(=O)NN)cc1 | 12.6 µM [falling, single point] |  |
| O=C(Nc1nnc(-c2ccc(Cl)cc2)o1)c1ccccc1Br | 14.6 µM [falling, partial curve, poor fit] |  |
| O=C(Cn1c(SCC(=O)NC2CCCC2)nnc1-c1ccncc1)Nc1ccc2c(c1)OCO2 | 5.62 µM [rising, full curve, poor fit] |  |
| CC1CN(Cc2nc3c(c(=O)n(C)c(=O)n3C)n2Cc2ccccc2)CC(C)O1 (centres undefined) | 25.9 µM [falling, partial curve, poor fit] |  |
| Cc1cccc(C(=O)NCCNC(=O)c2cnccn2)c1 | 0.112 µM [falling, full curve, poor fit] |  |
| CCOc1ccc(-c2nc(C)c(C(C)=O)n2O)cc1 | 3.26 µM [falling, full curve] |  |
| Cc1nc2nc(CCc3ccccc3)nn2c(C)c1Cl | 17.8 µM [falling, single point] |  |
| Cc1ccc(C)c(N(CC(=O)NCc2ccc3c(c2)OCO3)C(=O)CCC(=O)Nc2ccccn2)c1 | 35.5 µM [falling, single point] |  |
| O=C(Nc1cccnc1Cl)c1cc2c(s1)-c1ccccc1OC2 | 6.31 µM [falling, partial curve] |  |
| S=C1Cc2ccccc2N1 | 11.2 µM [falling, partial curve] | 14.1 µM [rising, partial curve, poor fit] |
| COc1ccc(C2=NN(C(=O)c3ccccc3C(=O)O)C(c3ccccc3O)C2)cc1 (centres undefined) | 14.1 µM [falling, single point] |  |
